From paper PMC5228053
These are yes or no findings as the source states them, for the method shown. In cells and extracts the contact can be indirect. Some binding calls cover weakened binding; strength is not graded here.

By UniProt entry, the sequences of proteins in these tests, tags left out.
UniProt P14618: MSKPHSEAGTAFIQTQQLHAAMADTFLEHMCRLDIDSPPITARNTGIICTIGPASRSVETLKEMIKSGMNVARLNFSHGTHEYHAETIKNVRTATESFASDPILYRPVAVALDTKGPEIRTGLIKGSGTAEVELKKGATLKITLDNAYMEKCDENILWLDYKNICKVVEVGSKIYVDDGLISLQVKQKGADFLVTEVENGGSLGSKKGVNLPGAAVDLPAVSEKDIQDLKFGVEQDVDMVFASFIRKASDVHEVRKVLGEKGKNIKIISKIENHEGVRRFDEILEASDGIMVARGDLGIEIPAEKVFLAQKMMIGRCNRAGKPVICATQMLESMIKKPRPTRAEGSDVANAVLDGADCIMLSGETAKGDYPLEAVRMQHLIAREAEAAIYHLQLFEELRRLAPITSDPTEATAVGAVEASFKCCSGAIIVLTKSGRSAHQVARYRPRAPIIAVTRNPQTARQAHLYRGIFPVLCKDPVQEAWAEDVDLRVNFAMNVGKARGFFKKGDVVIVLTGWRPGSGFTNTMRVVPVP

Biological target: T1, synaptosome-associated protein 23 (SNAP-23) (human (endogenous in A549)) (UniProt O00161)
T1 sequence: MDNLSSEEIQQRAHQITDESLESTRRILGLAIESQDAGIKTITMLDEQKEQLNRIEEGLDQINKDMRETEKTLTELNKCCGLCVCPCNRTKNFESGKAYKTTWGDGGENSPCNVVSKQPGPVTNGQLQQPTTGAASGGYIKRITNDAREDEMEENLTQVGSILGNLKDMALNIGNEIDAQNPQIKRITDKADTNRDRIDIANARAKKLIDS
Experiment: co-IP; endogenous proteins; A549 cell lysate pre-cleared with control IgG (legend: isolated exosome fraction from A549 cells); IP with anti-SNAP-23 or anti-PKM2 antibody or normal IgG, protein G-agarose; lysis buffer 20 mM Tris-HCl, 150 mM NaCl, 0.5% Nonidet P-40, 2 mM EDTA, 0.5 mM DTT, pH 7.4; blotted in a cross manner

- binding: binds
Substance: pyruvate kinase type M2 (PKM2) (from UniProt P14618 1-531) (enzyme)
